Molecules are shown by their SMILES. The list shows a part of the results. Shown are side measurements of this screen, not its main read-out; they come without a call. Most of these compounds were active or inconclusive in the main read-out, so they are no random draw. Potencies come from curve fits of mixed quality, noted in brackets.

This is an account of results in PubChem BioAssay AID2685 (National Center for Advancing Translational Sciences (NCATS), 2010).

The nature of the experiment: qHTS Assay for Lipid Storage Modulators in Drosophila S3 Cells.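 For cell number change: cells counted by Cell Tracker Red CMTPX staining in the red channel.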 The conditions noted are these: BODIPY lipid droplet fluorescence, 18-24 h; for cell number change: measured here: cell count max response, cells fed with added oleic acid. Summed up: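 Drosophila S3 cells got compounds at several concentrations plus oleic acid (400 uM solution). Laser-scanning cytometry with 488 nm excitation read lipid droplets at 500-530 nm and cells at 575-640 nm. Percent activity was relative to 20 uM Triacsin C.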
Background: qHTS replaces the single test concentration by a dilution series.

[1] abbreviates: measured here: lipid fluorescence (Fed channel) AC50, cells fed with added oleic acid.
The mark [2] stands for this setting: measured here: cell number channel AC50, cells fed with added oleic acid.

On to `O=S(=O)(c1ccc(Cl)nc1)N1CCCCC1`, for which the cell number change came to 21.2%. Also, under setting [1], the AC50 was 0.116 µM [falling, single point]. In the case of `c1cncc(-c2nn3c(Cn4nnc5ccccc54)nnc3s2)c1`, the cell number change was -3.93%. Further, the AC50 under setting [1] is 5.17 µM [falling, single point]. For `Cc1ccc(NC2=NCCCCC2)cc1C`, the cell number change was determined as 21.5%. Under setting [1], the AC50 is 8.2 µM [rising, partial curve, poor fit]. With `COc1ccc(-c2cc(C(=O)NCC(C)C)no2)cc1`, the cell number change amounted to 8.23%. As for `O=C(/C=C/c1ccc(S(=O)(=O)N2CCOCC2)cc1)NC(=S)Nc1ccc(Cl)cc1Cl`, the cell number change is -17.8%. For the compound `Cc1ccc(NC(=O)c2ccc(-n3cccn3)nc2)cc1`, the cell number change was found to be 1.04%. Under setting [2], the AC50 was 0.00517 µM [rising, full curve, poor fit].

With `Cn1c(CNC(=O)c2ccccc2F)nnc1SCCOc1ccccc1`, the cell number change worked out at 12%. As for `Cc1cc2c(cc(C(=O)NCc3cccnc3)n2Cc2ccc(Cl)cc2)o1`, the cell number change is -14%. Further, under setting [1], the AC50 is 0.58 µM [rising, partial curve]. On to `CCOC(=O)N1CCC(N(CCN(C)C)C(=S)Nc2ccc(OCC)cc2)CC1`, for which the cell number change worked out at 9.62%. For the same compound, the AC50 under setting [1] was 6.51 µM [rising, single point]. Regarding `C[C@H](NC(=O)c1[nH]cnc1C(=O)Nc1ccc(Cl)cc1)c1ccccc1`, the cell number change was -72.8%. Under setting [2], the concentration at half-maximal activity (AC50) was 23.1 µM [falling, single point]. In the case of `C1COCCNCCOCCOCCN1`, the cell number change was 25.8%. In addition, the AC50 under setting [1] is 29.1 µM [rising, single point].

For `CN(CCC#N)C(=O)COC(=O)/C=C/c1ccc2c(c1)OCO2`, the cell number change was -2.15%. In addition, under setting [2], the AC50 is 0.366 µM [rising, single point]. Moreover, the AC50 under setting [1] is 0.326 µM [rising, partial curve, poor fit].

With `CCC1=NN(C(=O)c2ccc(Cl)cc2)C(O)(c2ccc(C)cc2)C1` (configuration not stated), the cell number change was -4.76%. For the same compound, the AC50 under setting [1] was 4.11 µM [falling, single point]. As for `COc1ccc(S(=O)(=O)N2CCC(C(=O)N3CCN(c4ccccc4OC)CC3)CC2)cc1`, the AC50 under setting [2] was 6.51 µM [rising, partial curve, poor fit]. `COc1ccc(CNc2cc(C)cc(C)c2)cc1OC`: the AC50 under setting [1] was 29.1 µM [rising, single point]. As to `CCCCCCSc1cccc(-c2nc3ccc(C)cn3c2NC2CCCCC2)c1`, the cell number change was -40.5%. The AC50 under setting [2] is 29.1 µM [falling, partial curve, poor fit]. The AC50 under setting [1] was 4.11 µM [falling, partial curve, poor fit]. In the case of `CC(C)CCNC(=O)C1CC(c2cccc(F)c2)=NO1` (configuration not stated), the cell number change stood at 23.8%. Further, the AC50 under setting [1] is 11.6 µM [rising, single point]. `Cc1cccc(C(=O)OCC(=O)NNC(=O)c2cccs2)c1O`: the cell number change is -25%. In addition, the AC50 under setting [2] was 0.00461 µM [falling, full curve, poor fit]. For the compound `O=C(CNC(=O)c1cc(Cl)cc([N+](=O)[O-])c1)OCC(=O)N1CCCCC1`, the cell number change is -3.05%.

For the compound `Cc1cc(C)n(-c2nc3ccccc3nc2N2CCN(S(=O)(=O)c3ccc4ccccc4c3)CC2)n1`, the cell number change is 2.44%. For `O=C1CCCC2=C1C(c1ccc(Cl)cc1)C1C(=O)c3ccccc3C1=N2` (configuration not stated), the cell number change was 6.9%. Also, the AC50 under setting [1] is 4.11 µM [falling, single point]. On to `Cc1cccc2nc(COc3ccc4ccccc4c3Br)cn12`, for which the cell number change is 0.612%. Under setting [2], the AC50 was 2.31 µM [rising, partial curve]. As to `CC(=O)c1c(C)[nH]c(C(=O)OCC(=O)N2CCN(S(=O)(=O)c3ccc(C)cc3C)CC2)c1C`, the cell number change was -49.1%. The AC50 under setting [2] is 1.84 µM [falling, partial curve]. `COc1ccc(C)cc1S(=O)(=O)N1CCN(Cc2ccccc2)CC1`: the cell number change came to 63.6%. For the same compound, the AC50 under setting [2] was 2.59 µM [rising, full curve, poor fit]. Besides, the AC50 under setting [1] was 4.61 µM [rising, full curve].

As for `COc1ccc(Cc2nnc(SCc3c(C)noc3C)n2C2CCCCC2)cc1OC`, the cell number change was -8.77%.

In the case of `Cc1ccc([C@@H]2[C@@H]3C(=O)N(c4ccccc4)C(=O)[C@@H]3[C@]3(C)C(=O)N(Cc4ccccc4)CC(=O)N23)o1`, the cell number change came out at 15.3%. In the case of `C=CCN(c1ccc(C(=O)Nc2ccc(C)cc2)cc1)S(C)(=O)=O`, under setting [1], the AC50 is 6.51 µM [falling, single point].

For `Cc1cc(N2CCN(Cc3nc(-c4ccc(Cl)cc4)oc3C)CC2)cc(C)n1`, the cell number change stood at 13.7%. For the same compound, the AC50 under setting [1] was 0.82 µM [rising, partial curve]. Take `Cc1cc(C)nc(Sc2ccc3nnc(C(F)(F)C(F)(F)C(F)(F)F)n3n2)n1`: the cell number change amounted to 93.9%. Further, the AC50 under setting [2] was 16.4 µM [rising, single point]. Moreover, the AC50 under setting [1] was 18.4 µM [rising, partial curve]. For `CC1Cn2c(nnc2-c2cc3ccccc3cc2O)S1` (configuration not stated), the cell number change is -35.9%. Besides, the half-maximal activity concentration (AC50) under setting [2] is 9.2 µM [falling, partial curve]. Moreover, the AC50 under setting [1] was 14.6 µM [falling, partial curve, poor fit].

Regarding `CCCOc1ccc(/C(O)=C2/C(=O)C(=O)N(CCCn3ccnc3)C2c2ccc(C)o2)cc1` (configuration not stated), the cell number change was -16.6%. Besides, the AC50 under setting [1] is 0.82 µM [falling, full curve]. Turning to `COc1cc(OC)cc(-c2cc3nc(C)cc(N4CCN(C(=O)c5ccco5)CC4)n3n2)c1`, the cell number change was 4.76%. In addition, under setting [1], the AC50 is 3.26 µM [rising, partial curve]. For `COC(=O)CCCCCN1C(=O)NC(c2ccc(-c3ccccc3)cc2)C(C(=O)OCc2ccccc2)=C1C` (configuration not stated), the AC50 under setting [1] was 16.4 µM [rising, partial curve]. Regarding `CC1=C(C(=O)OCc2ccc3c(c2)OCO3)C(c2ccccc2OCc2ccccc2)NC(=O)N1` (configuration not stated), the cell number change was 8.2%. The AC50 under setting [2] is 1.3 µM [rising, full curve, poor fit]. The AC50 under setting [1] was 6.51 µM [rising, partial curve, poor fit]. For `Cc1nc2ccc(S(=O)(=O)NC(C(=O)NCc3ccco3)C(C)C)cc2s1` (configuration not stated), the cell number change was -27.8%. The AC50 under setting [1] was 29.1 µM [falling, single point].

Regarding `CCC(Cc1ccccc1)NC(=O)c1ccc2nc(N3CCOCC3)sc2c1` (configuration not stated), the cell number change is 10.2%. Also, the AC50 under setting [1] was 16.4 µM [rising, single point]. In the case of `CC1=C(C(=O)NC2CCCc3c2cnn3-c2cccc(C)c2C)OCCO1` (configuration not stated), the cell number change was -56.7%. Also, the AC50 under setting [2] was 0.0517 µM [falling, full curve]. Further, the concentration at half-maximal activity (AC50) under setting [1] is 0.00517 µM [falling, full curve]. As for `CC1(c2ccccc2Cl)NC(=O)N(CC(=O)NC(=O)NCc2ccco2)C1=O` (configuration not stated), the cell number change amounted to 4.86%. In addition, under setting [2], the AC50 was 6.51 µM [rising, single point].

Usually AC50 stands for the midpoint of the concentration-response curve, whichever way the signal moves. Low values mean greater potency, high ones weaker potency.
